Measured values taken from paper PMC4477675.
Results are given in words; binding and its absence hold for the method and conditions named. In cells and extracts the contact can be indirect.

Amino acid sequences for entries named in this document (tags omitted).
UniProt Q03468: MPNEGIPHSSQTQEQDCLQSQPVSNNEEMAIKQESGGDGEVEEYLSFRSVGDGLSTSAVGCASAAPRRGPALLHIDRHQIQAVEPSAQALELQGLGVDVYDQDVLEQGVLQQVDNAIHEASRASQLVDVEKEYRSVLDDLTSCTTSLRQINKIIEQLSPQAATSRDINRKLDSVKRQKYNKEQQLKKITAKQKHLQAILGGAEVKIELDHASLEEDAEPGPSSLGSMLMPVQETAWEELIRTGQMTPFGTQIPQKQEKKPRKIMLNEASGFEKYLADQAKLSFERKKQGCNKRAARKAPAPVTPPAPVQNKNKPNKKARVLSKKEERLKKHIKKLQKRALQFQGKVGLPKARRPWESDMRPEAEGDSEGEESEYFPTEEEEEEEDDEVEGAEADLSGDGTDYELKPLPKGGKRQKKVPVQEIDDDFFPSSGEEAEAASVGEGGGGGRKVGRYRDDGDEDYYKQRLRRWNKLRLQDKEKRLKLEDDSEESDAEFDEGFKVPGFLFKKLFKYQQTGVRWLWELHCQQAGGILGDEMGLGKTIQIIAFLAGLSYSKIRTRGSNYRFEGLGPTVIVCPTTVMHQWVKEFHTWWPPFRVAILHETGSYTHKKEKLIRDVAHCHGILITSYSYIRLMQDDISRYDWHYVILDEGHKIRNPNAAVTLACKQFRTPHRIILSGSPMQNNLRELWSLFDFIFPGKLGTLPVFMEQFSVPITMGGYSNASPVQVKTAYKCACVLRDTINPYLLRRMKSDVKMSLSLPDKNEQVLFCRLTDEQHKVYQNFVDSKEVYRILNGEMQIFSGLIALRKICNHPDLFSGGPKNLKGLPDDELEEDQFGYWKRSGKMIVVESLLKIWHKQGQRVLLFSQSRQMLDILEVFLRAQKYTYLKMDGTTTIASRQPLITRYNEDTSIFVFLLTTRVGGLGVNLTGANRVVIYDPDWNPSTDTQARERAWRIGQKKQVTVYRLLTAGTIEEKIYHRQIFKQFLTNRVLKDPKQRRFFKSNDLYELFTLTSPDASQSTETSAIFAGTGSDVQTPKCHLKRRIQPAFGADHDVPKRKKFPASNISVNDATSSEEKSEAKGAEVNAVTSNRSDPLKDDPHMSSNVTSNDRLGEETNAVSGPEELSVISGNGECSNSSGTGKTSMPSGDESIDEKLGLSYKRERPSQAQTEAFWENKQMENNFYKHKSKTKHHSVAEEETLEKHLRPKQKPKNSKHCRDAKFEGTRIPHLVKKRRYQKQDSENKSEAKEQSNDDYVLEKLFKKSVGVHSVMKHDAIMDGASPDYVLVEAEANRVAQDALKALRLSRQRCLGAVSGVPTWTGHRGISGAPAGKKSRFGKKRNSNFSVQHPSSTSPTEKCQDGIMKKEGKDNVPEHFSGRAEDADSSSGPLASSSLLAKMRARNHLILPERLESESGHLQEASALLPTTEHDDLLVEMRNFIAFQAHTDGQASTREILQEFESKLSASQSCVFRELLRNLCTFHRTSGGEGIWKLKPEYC
UniProt Q13216: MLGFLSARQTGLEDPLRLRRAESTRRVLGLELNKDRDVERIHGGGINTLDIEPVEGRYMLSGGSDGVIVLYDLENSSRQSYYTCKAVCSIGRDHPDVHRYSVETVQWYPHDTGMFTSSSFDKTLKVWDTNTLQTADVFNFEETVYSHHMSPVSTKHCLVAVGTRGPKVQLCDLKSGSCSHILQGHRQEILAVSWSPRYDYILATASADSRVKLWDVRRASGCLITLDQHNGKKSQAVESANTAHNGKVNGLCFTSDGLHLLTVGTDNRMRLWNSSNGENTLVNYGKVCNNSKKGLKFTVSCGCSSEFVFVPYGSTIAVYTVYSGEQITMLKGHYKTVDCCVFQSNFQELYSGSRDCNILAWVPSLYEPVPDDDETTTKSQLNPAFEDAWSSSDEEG

Molecular target: T1, XPD (as used in the co-IP assays of Supplementary Figure S4) (human) (UniProt P18074)
T1 sequence: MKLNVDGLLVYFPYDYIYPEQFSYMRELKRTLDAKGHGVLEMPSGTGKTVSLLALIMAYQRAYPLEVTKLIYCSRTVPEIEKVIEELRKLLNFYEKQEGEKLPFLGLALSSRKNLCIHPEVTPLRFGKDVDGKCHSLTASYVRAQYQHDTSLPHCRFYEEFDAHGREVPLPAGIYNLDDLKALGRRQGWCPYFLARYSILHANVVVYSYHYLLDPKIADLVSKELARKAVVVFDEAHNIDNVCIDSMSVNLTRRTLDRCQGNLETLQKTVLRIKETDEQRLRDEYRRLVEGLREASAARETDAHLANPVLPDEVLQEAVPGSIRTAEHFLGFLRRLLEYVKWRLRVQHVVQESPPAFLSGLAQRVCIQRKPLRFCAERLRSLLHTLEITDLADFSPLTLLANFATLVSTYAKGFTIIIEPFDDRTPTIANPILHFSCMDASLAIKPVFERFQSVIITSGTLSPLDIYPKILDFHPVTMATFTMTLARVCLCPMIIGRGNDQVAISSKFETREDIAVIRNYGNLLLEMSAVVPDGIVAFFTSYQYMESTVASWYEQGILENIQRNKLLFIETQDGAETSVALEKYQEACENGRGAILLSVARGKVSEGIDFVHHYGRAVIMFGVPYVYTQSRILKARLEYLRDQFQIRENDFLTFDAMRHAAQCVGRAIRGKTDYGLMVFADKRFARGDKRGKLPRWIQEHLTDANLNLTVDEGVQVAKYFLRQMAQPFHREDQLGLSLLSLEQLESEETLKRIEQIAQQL
Assay: co-IP; co-IP assays of XPD with CSA or CSB (Supplementary Figure S4); set-up not told

In the case of “CSB (from UniProt Q03468 1-1493) (other; other documents disagree on this pair)”, the binding is reported as “no binding”.

CSA (from UniProt Q13216 1-396) was tested, and the binding was “no binding”.
